Earlier results, collected in patent US20070166367A1, “Adept or gdept producing acetaldehyde” (priority 2004, published 2007).

System: Transfected CHO cells
Conditions: cited from earlier work

## CC=O [acetaldehyde]
Holownia et al (1996)
  reported levels of AA produced: 200 to 400 µM
Holownia et al (1999)
  reported levels of AA produced: 450 µM
After 48 hours, Mapoles et al (1994)
  reported levels of AA produced: 1000 µM

Read-outs that look alike come from different tables or passages of the source.
